{"source": "PubChem BioAssay AID1259425 (University of Nebraska Medical Center, 2018)", "aim": "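Seek colon cancer weak points whose silencing resembles KSR1 loss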 (primary screen)", "cells": "HCT116 human colon cancer cells", "knock-down reagent": "siRNA pool against human genes, 50 nM siRNA", "read-out": "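After 50 nM siRNA pool, branched-DNA assay measures six marker transcripts per well, minus blank, normalised to the geometric mean of two housekeeping transcripts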", "direction": "BNIP3L mRNA: higher = more BNIP3L transcript after knockdown", "note": "The whole screen tested about 14,000 reagents; below is an unselected part. Further read-outs or replicates are left out here. No sequences are given here. Not stated in the record: the time to read-out."}
{"target gene": "MREG", "BNIP3L mRNA, set 1": 0.0952}
{"target gene": "USP16", "BNIP3L mRNA, set 1": 0.0979}
{"target gene": "ZNF443", "BNIP3L mRNA, set 1": 0.158}
{"target gene": "ADAMTS13", "BNIP3L mRNA, set 1": 0.104}
{"target gene": "SORD", "BNIP3L mRNA, set 1": 0.0772}
{"target gene": "ADCY2", "BNIP3L mRNA, set 1": 0.0406}
{"target gene": "F2RL3", "BNIP3L mRNA, set 1": 0.116}

The list goes on, starting with the last 2 of the part before.
{"target gene": "ADCY2", "BNIP3L mRNA, set 1": 0.0406}
{"target gene": "F2RL3", "BNIP3L mRNA, set 1": 0.116}
{"target gene": "B3GNT3", "BNIP3L mRNA, set 1": 0.128}
{"target gene": "SH3BP2", "BNIP3L mRNA, set 1": 0.111}
{"target gene": "NCOA5", "BNIP3L mRNA, set 1": 0.121}
{"target gene": "CA5B", "BNIP3L mRNA, set 1": 0.076}
{"target gene": "SIK3", "BNIP3L mRNA, set 1": 0.082}
{"target gene": "DNAJB12", "BNIP3L mRNA, set 1": 0.108}
{"target gene": "MIR9-1HG", "BNIP3L mRNA, set 1": 0.135}
{"target gene": "TANK", "BNIP3L mRNA, set 1": 0.0731}
{"target gene": "LST1", "BNIP3L mRNA, set 1": 0.216}
{"target gene": "CRIM1", "BNIP3L mRNA, set 1": 0.112}
{"target gene": "PSMB8", "BNIP3L mRNA, set 1": 0.083}
{"target gene": "SRM", "BNIP3L mRNA, set 1": 0.104}
